According to patent publication US7601743B2, “Cyano anthranilamide insecticides” (Syngenta Crop Protection, Inc., priority 2005, dated 2009):
Some entries share one result that the patent states for a list of compounds.

Test system: Frankliniella occidentalis
Experiment: Activity against Frankliniella occidentalis
Format: in vivo
Settings: bean leaf discs (6 days) or bean plants (14 days), diluted test solutions, mixed population

With `Cc1cc(C#N)cc(C(=O)NC2(C3CC3)CC2)c1NC(=O)c1cc(C(F)(F)F)nn1-c1ncccc1Cl` [A.1.1, 2-(3-Chloro-pyridin-2-yl)-5-trifluoromethyl-2H-pyrazole-3-carboxylic acid [2-(bicyclopropyl-1-ylcarbamoyl)-4-cyano-6-methyl-phenyl]-amide] the “activity (reduction of treated population)” value was “over 80%”.
